Measurements reported in the supplement of paper PMC10849652.
Some of the results follow.

Protein sequences, listed by entry. Tags and fused reporters are not part of them. Lines headed by an entry give the natural chain unless they say otherwise; changes in a name come on top.
UniProt Q5JS37: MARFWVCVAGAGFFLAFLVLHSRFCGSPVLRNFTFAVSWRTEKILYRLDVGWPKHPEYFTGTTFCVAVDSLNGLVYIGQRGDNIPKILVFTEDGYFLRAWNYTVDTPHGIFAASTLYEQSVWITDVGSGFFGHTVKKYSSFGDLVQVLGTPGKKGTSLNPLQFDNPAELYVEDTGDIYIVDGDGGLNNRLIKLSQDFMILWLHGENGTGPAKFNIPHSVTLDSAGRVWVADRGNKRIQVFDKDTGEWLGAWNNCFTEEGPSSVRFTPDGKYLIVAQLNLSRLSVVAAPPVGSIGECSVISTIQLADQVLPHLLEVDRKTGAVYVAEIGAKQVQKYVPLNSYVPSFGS
UniProt P13056: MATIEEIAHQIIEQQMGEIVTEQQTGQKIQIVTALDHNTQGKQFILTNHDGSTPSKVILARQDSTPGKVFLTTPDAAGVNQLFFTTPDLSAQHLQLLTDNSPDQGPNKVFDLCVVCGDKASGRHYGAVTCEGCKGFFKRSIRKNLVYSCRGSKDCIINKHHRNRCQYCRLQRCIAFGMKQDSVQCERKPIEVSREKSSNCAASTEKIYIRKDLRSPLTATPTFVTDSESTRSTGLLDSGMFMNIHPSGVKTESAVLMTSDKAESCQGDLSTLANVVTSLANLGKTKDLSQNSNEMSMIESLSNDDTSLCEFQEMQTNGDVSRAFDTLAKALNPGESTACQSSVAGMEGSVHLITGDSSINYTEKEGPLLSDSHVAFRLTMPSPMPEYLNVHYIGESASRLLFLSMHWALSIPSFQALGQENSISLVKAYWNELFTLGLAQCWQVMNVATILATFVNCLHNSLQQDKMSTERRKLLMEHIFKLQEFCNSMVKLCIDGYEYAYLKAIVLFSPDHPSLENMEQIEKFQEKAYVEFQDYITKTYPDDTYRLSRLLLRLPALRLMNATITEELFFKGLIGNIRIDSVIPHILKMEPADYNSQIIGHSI
UniProt Q9NPE3: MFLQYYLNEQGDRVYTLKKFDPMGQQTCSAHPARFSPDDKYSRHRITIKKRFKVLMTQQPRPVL
UniProt Q7RTP0: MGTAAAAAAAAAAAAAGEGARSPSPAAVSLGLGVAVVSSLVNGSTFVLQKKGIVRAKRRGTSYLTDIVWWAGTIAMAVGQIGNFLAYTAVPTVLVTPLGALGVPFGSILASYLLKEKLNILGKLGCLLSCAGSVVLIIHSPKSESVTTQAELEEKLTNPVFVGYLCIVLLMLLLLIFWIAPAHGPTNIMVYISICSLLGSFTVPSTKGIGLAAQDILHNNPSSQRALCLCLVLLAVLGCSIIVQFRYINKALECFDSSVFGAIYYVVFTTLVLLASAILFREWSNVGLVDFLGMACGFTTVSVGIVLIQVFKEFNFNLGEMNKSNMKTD
UniProt P04150: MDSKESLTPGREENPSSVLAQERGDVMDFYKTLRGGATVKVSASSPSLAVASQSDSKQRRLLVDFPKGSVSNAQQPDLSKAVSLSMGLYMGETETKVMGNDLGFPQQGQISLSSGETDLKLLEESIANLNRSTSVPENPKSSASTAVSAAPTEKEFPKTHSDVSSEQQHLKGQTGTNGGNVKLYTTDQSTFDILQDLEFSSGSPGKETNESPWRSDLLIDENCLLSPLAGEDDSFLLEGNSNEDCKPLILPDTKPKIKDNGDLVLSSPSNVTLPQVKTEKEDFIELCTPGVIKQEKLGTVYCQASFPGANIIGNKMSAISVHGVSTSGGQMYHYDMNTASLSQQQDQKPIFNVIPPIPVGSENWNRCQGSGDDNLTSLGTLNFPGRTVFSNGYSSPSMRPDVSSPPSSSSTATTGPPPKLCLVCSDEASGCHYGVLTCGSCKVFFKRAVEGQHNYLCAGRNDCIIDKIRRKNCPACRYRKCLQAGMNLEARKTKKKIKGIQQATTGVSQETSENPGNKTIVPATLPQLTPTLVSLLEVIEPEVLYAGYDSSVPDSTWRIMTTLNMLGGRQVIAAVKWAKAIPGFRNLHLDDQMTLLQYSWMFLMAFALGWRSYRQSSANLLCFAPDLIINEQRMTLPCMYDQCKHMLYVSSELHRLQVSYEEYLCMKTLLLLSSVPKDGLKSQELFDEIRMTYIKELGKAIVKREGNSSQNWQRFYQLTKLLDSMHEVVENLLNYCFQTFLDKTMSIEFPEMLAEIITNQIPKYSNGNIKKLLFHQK
UniProt Q14978: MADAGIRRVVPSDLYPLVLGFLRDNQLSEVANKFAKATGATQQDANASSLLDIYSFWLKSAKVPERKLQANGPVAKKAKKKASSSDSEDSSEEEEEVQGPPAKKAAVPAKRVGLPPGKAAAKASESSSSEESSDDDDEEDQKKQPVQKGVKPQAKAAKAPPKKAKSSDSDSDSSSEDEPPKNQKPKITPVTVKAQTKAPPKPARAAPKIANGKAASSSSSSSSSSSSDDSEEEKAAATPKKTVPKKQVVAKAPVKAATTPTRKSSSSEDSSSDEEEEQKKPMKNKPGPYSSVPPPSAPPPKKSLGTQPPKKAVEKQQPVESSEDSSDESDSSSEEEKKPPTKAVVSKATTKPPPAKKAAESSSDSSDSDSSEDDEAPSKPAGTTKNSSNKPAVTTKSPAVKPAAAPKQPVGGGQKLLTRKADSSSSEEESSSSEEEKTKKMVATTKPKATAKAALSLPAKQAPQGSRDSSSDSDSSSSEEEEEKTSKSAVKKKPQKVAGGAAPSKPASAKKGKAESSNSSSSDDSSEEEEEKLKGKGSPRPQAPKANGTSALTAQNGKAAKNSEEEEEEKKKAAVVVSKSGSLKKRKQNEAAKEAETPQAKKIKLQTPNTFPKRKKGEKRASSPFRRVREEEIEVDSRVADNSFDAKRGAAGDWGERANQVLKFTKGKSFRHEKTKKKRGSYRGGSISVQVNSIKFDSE
UniProt P25963: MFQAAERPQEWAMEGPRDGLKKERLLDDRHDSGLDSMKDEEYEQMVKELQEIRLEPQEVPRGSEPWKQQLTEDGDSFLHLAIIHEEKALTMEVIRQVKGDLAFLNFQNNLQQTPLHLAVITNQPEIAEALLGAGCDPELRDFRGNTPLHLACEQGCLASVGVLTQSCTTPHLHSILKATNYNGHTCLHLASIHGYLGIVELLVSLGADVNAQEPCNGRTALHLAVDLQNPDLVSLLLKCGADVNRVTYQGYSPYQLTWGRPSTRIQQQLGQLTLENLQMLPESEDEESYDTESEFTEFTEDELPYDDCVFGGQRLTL
UniProt P51956: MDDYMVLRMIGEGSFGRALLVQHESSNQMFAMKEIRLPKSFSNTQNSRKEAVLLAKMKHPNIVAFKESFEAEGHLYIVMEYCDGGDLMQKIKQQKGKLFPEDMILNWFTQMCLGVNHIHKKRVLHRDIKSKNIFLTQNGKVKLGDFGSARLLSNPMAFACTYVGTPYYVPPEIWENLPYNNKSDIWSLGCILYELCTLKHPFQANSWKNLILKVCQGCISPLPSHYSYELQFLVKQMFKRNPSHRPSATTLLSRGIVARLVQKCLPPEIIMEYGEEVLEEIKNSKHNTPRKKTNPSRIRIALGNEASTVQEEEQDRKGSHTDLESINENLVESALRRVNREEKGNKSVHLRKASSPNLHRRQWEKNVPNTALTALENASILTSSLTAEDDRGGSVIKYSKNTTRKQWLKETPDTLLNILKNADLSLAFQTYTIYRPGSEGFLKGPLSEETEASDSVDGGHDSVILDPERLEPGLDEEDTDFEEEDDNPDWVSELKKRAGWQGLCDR
UniProt O00221: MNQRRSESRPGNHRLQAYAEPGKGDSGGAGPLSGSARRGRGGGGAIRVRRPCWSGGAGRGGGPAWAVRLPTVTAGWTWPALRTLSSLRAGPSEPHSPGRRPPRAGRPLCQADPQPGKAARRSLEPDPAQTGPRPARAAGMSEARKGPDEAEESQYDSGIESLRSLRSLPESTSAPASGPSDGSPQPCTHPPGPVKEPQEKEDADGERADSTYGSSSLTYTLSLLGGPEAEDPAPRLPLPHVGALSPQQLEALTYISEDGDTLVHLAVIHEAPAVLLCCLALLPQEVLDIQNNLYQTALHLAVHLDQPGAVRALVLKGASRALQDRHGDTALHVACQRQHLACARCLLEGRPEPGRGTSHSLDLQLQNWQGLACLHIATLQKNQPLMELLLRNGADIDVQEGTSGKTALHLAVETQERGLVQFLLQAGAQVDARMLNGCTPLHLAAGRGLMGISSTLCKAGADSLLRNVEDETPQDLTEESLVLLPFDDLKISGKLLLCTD
UniProt Q8NC67: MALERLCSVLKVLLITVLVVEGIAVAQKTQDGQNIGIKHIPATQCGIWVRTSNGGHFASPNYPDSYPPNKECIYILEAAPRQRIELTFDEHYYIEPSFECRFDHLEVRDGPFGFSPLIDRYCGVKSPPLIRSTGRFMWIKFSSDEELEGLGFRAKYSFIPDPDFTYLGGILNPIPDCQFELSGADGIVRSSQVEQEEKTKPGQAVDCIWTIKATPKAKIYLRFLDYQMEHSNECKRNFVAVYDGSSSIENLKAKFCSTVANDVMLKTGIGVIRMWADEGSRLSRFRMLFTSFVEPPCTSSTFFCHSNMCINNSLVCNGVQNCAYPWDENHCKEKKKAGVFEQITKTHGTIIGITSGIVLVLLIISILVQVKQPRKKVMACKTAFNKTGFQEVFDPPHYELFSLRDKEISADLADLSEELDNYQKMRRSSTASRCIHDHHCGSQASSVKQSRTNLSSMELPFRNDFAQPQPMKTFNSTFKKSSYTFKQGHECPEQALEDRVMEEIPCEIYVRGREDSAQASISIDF
UniProt Q7RTR2: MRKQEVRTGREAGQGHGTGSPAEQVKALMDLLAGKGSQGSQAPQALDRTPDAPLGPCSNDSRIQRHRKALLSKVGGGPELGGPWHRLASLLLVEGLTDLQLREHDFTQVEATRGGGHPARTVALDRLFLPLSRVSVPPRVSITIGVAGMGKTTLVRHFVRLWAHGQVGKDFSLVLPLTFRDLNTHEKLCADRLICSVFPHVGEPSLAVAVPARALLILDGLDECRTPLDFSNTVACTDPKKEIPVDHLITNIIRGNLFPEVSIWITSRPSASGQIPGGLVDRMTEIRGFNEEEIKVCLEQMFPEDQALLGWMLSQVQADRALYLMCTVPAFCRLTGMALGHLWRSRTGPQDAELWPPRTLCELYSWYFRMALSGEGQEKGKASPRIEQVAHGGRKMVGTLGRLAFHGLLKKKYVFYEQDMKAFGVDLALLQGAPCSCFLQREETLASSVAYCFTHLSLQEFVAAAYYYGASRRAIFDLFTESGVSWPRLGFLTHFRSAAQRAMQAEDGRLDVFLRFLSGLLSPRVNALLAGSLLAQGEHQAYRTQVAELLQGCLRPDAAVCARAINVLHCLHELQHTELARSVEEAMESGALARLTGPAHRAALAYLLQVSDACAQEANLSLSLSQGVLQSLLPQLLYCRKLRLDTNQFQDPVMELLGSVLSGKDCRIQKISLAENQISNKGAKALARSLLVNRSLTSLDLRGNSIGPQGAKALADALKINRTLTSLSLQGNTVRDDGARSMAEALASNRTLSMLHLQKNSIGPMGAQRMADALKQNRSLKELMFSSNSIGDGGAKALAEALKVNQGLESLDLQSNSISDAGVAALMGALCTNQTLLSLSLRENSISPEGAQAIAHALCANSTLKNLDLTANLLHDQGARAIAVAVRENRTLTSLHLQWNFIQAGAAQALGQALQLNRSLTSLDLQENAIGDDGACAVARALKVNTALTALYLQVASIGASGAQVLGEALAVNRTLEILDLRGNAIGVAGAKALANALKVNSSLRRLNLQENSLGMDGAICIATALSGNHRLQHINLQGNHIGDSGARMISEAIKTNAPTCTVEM
UniProt P78316: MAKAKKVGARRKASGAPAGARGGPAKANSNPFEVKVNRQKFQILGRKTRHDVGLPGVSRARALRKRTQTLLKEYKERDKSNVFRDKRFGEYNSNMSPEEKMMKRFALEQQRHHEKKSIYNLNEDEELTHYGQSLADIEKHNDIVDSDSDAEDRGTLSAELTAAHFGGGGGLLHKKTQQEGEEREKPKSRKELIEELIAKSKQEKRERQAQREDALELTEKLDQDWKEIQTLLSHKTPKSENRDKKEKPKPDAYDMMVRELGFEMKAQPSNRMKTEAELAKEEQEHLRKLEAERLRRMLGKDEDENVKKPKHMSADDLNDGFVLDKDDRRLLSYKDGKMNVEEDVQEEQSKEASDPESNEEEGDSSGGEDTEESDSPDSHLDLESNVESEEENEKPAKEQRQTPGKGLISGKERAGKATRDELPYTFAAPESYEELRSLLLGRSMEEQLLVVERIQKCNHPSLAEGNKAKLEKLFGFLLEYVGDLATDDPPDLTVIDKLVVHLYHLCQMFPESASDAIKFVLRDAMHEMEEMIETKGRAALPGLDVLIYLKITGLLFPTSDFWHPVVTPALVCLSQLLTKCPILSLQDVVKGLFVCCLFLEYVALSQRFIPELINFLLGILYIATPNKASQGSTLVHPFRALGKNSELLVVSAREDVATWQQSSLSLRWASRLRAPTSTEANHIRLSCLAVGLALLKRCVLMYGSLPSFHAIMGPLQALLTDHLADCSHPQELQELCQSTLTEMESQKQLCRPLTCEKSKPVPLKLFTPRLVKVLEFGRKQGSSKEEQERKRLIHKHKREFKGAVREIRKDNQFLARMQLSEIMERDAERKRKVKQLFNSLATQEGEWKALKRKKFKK

Columns and labels:
Test in all cases: log2 fold change, soluble protein after heating vs DMSO (PISA); higher = thermal stabilisation; K562 cells, 10 uM, 30 min; active = over 0.2 and 3.5 SD of the protein, either way, in both replicates (recomputed)
[1] = compound: C1=CC=C(C=C1)[C@H](COC2=CC3=C(C=C2)NC(=O)N3)NC(=O)C4=CC=CN(C4=O)CC5=CC(=C(C=C5)F)F
In short: (§1)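 Values are thermal stability changes relative to control samples and are taken from duplicates. They are stated as log2 fold changes. Before quantification by TMTpro 16plex LC-MS/MS with equalised channel sums, K562 cells at 2×10^6 cells/mL were treated with 10 μM compound for 30 min, heated in aliquots for 3 min across 48°C-58°C, pooled, extracted in PBS with 0.5% NP-40 at 4°C, and centrifuged at 21,000xg for 90 min to give the soluble supernatant.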

[2] = compound: CC1=C(SC2=C1C(=N[C@H](C3=NN=C(N32)C)CC(=O)N)C4=CC=C(C=C4)Cl)C
In short: as §1

[3] = compound: CC1=C2C(=CC=C1)N=C(N(C2=O)C3=CC=CC=C3C)CN4C=NC5=C(N=CN=C54)N
In short: as §1

[4] = compound: Cc1sc2c(c1C)C(c1ccc(Cl)cc1)=N[C@@H](CC(=O)OC(C)(C)C)c1nnc(C)n1-2
In short: as §1

[5] = compound: c1ccc([C@@H]2C[C@H]2NC2CCNCC2)cc1
In short: as §1

Measured: log2 fold change

NLN (UniProt Q9BYT8)
inactive: [1] -0.001 | [2] 0.03 | [3] 0.012 | [4] -0.054 | [5] -0.013

NIPBL (UniProt Q6KC79)
inactive: [1] 0.112 | [4] -0.113

NEURL4 (UniProt Q96JN8)
inactive: [1] 0.008 | [2] -0.078 | [3] 0.115 | [5] 0.204

NOL4L (UniProt Q96MY1)
inactive: [4] 0.032

NFATC1 (UniProt O95644)
inactive: [3] 0.311

NHLRC3 (UniProt Q5JS37)
inactive: [1] -0.018 | [2] 0.192 | [4] -0.055 | [5] 0.138

NEK1 isoform 3 (UniProt Q96PY6)
inactive: [2] 0.046 | [3] 0.148 | [5] 0.018

NR2C1 (UniProt P13056)
inactive: [1] 0.038 | [3] 0.234

NOP10 (UniProt Q9NPE3)
inactive: [1] 0.043 | [2] -0.001 | [5] -0.02

NIPA1 (UniProt Q7RTP0)
inactive: [1] 0.105 | [2] 0.07 | [3] 0.083 | [4] -0.08 | [5] 0.118

NR3C1 isoform 3 (UniProt P04150)
inactive: [2] -0.029 | [4] 0.042 | [5] 0.155

NEO1 (UniProt Q92859)
inactive: [3] 0.045 | [4] -0.11

Looked up one by one from above, two records:
NIPA1 (UniProt Q7RTP0)
inactive: [1] 0.105 | [2] 0.07 | [3] 0.083 | [4] -0.08 | [5] 0.118

NR2C1 (UniProt P13056)
inactive: [1] 0.038 | [3] 0.234

Following part.

NOLC1 isoform 3 (UniProt Q14978)
inactive: [2] 0.007 | [5] -0.021

NFKBIA (UniProt P25963)
inactive: [3] -0.009

NEK3 (UniProt P51956)
inactive: [2] 0.204 | [3] 0.053 | [4] -0.032 | [5] -0.094

NHLRC2 (UniProt Q8NBF2)
inactive: [1] -0.027 | [2] 0.038 | [3] 0.127 | [4] 0.009 | [5] 0.024

NQO2 (UniProt P16083)
inactive: [1] 0.024 | [2] 0.008 | [3] -0.001 | [4] -0.005 | [5] 0.005

NOD1 (UniProt Q9Y239)
inactive: [1] 0.121 | [2] 0.013 | [5] -0.066

NFKBIE (UniProt O00221)
inactive: [2] 0.128 | [3] 0.12 | [4] 0.012 | [5] -0.01

NETO2 (UniProt Q8NC67)
inactive: [3] 0.077

NFE2L1 (UniProt Q14494)
inactive: [2] -0.126 | [3] -0.007 | [4] -0.113 | [5] -0.065

NRDC isoform 2 (UniProt O43847)
inactive: [1] -0.058 | [2] 0.04 | [3] 0.037 | [4] -0.023 | [5] 0

NLRC3 isoform 2 (UniProt Q7RTR2)
inactive: [1] 0 | [2] -0.037 | [3] 0.433 | [5] 0.152

NOP14 (UniProt P78316)
inactive: [2] -0.027 | [3] -0.133 | [4] 0.191 | [5] -0.094

NOL7 (UniProt Q9UMY1)
inactive: [1] 0.168 | [2] -0.221 | [3] -0.265 | [4] 0.188 | [5] 0.057

NRSN2 (UniProt Q9GZP1)
inactive: [4] 0.007

NOTCH2 (UniProt Q04721)
inactive: [1] 0.087 | [4] -0.055
